PMC11358003, “A bispecific antibody approach for the potential prophylactic treatment of inherited bleeding disorders” (Nature Cardiovascular Research, 2024)

Target: T1, soluble extracellular fragment of TLT-1 (sTLT-1) (human) (UniProt Q86YW5)
T1 sequence: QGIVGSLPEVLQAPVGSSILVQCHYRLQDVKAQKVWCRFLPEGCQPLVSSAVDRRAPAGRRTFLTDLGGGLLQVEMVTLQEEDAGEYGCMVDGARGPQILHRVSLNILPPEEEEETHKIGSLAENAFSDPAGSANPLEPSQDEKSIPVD
Assay: SPR; Biacore 8K, 25 °C, ABA injection; His-tagged sTLT-1 (400 nM) captured on immobilised anti-His antibody on a CM5 chip; fibrinogen 0-1,000 nM injected in running buffer, 1 μM HMB-001 or 1 μM pTLT-1 antibody; 10 mM HEPES, 150 mM NaCl, 0.05% polysorbate 20, pH 7.4, 5 mM CaCl2, 1 mg/ml BSA; not fitted; n = 2; both purified

Substance: fibrinogen (complex)
- binding: binds

No constants are given. Whether binding was seen depends on the method and setting. A result given as binding can be weak or reduced; the word gives no strength.
